The exact form of at least one protein or probe is not confirmed. At least one verdict was read from the data and is not stated in words by the source.

By UniProt entry, the sequences of proteins in these tests, tags left out. Residues count along the entry.
UniProt P09651, 1-97: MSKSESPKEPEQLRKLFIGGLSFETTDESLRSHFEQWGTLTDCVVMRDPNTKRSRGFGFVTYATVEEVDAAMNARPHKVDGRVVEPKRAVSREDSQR

The data set has as its target hnRNP A1 RRM1 (UniProt P09651). As to the kind of experiment: NMR (3J couplings of complex). As to conditions: 20 mM K phosphate pH 5.8, 10 mM NaCl, 0.1% beta-mercaptoethanol, 25 C (NMR titrations and ITC); hnRNP A1: 10 mM Na phosphate pH 6.5, 10 mM beta-mercaptoethanol; recombinant protein; protein details: His-tag (pET28a, Ni affinity).

On to UUAGGCU, for which the binding result is on record as “binds”.

Values taken from article PMC5608764.
